Experimental data as given in patent US20130158098A1, “Alkenyl Substituted Cycloaliphatic Compounds as Chemical Inducers of Proximity” (priority 2010, published 2013).
These are yes or no findings as the source states them, for the method shown. Binding seen in cells or lysates may run through a third protein. Some results given as binding are weak or reduced against the parent protein; the word gives no strength.

Chains of the proteins cited; added tags and fusions are not shown. Lines headed by an entry give the natural chain unless they say otherwise; changes in a name come on top.
UniProt P49597: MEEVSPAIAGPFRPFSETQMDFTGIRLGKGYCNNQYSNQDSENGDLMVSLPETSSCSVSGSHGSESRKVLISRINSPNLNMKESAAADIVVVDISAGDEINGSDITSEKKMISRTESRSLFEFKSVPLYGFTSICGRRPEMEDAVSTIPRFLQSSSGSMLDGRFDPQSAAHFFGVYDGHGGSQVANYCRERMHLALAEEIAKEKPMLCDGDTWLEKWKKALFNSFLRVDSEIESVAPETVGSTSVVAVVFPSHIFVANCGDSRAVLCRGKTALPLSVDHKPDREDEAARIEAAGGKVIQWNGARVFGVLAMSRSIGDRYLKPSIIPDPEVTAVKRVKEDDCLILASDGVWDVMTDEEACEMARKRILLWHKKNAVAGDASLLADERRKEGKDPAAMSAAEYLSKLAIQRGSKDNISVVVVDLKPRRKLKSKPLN

Target: GFP-PYLcs (GFP fused to PYL1 aa 33-209) (Arabidopsis thaliana) [GFP: P42212]
Assay: GST pull-down: GST-ABIcs on glutathione beads, GFP-PYLcs from 293T whole-cell lysate, with or without 500 µM ABA, Western blot

binding: binds
Substance: GST-ABIcs, wild type (glutathione S-transferase fused to ABI1 aa 126-423) (from UniProt P49597 126-423)
